Experimental data as given in the supplement of paper PMC10849652.
The list shows a part of the results.

Sequences of proteins named here, by UniProt entry; tags and fusion partners are left off. A change or cut given only in a name is not applied to a line headed by its entry.
UniProt Q15269: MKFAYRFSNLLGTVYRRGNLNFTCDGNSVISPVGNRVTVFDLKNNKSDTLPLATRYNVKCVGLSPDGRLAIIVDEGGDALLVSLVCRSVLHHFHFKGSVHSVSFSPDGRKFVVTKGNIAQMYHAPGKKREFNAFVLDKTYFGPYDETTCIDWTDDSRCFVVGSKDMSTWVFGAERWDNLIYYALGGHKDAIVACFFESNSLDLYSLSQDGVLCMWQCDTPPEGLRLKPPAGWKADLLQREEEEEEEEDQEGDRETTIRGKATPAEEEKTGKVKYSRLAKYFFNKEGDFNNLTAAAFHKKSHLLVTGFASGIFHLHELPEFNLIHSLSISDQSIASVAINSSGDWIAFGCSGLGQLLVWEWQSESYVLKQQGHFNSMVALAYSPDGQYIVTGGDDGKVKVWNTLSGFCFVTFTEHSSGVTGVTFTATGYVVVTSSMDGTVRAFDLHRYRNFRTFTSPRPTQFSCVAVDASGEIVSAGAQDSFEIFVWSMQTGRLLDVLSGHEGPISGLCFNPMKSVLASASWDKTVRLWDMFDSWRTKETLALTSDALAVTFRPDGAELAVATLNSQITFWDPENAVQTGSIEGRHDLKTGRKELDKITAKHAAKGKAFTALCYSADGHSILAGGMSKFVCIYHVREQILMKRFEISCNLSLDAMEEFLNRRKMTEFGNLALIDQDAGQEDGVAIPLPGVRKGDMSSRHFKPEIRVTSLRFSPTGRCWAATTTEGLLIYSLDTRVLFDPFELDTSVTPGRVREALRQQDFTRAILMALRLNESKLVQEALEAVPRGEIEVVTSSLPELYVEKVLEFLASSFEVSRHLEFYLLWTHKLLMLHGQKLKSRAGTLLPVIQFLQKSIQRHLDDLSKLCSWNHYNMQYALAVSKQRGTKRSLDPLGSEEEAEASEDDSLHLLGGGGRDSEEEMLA
UniProt Q8TBF2: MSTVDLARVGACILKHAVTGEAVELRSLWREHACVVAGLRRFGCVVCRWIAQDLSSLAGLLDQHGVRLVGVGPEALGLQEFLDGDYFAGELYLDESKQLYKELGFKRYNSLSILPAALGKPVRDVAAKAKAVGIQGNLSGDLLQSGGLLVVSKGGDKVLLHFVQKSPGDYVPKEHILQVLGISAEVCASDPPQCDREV
UniProt P41219, whole entry, looked up: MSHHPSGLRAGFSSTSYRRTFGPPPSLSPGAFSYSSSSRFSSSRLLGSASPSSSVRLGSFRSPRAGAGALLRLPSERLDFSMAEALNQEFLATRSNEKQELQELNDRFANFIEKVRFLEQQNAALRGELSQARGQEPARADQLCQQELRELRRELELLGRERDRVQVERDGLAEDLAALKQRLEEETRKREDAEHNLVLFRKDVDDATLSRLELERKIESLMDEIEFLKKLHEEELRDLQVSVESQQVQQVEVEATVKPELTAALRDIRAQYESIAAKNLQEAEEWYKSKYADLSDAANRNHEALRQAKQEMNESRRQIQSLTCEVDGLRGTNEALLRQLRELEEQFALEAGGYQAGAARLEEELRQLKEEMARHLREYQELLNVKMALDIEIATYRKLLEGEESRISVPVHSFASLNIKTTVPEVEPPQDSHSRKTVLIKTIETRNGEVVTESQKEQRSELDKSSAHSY
UniProt O75475: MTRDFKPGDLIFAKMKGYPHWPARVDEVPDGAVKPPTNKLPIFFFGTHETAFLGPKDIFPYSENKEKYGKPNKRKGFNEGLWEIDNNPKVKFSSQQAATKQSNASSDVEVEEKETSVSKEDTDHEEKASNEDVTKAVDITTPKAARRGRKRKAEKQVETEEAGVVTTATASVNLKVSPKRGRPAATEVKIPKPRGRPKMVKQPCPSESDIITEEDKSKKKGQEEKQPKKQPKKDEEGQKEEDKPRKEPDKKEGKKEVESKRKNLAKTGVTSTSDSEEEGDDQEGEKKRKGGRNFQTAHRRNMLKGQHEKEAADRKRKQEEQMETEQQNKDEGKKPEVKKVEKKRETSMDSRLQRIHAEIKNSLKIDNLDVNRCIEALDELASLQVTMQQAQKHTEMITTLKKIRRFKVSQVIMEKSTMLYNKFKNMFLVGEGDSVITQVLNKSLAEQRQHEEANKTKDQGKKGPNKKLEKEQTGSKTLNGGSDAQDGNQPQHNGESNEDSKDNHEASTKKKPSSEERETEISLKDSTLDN
UniProt Q9NRG1: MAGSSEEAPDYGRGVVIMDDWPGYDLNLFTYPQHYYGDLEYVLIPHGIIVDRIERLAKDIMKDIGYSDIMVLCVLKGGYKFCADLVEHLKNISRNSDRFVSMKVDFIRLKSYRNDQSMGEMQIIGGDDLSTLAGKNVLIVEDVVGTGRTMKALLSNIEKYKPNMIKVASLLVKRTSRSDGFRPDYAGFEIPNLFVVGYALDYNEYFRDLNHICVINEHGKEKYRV
UniProt P18433: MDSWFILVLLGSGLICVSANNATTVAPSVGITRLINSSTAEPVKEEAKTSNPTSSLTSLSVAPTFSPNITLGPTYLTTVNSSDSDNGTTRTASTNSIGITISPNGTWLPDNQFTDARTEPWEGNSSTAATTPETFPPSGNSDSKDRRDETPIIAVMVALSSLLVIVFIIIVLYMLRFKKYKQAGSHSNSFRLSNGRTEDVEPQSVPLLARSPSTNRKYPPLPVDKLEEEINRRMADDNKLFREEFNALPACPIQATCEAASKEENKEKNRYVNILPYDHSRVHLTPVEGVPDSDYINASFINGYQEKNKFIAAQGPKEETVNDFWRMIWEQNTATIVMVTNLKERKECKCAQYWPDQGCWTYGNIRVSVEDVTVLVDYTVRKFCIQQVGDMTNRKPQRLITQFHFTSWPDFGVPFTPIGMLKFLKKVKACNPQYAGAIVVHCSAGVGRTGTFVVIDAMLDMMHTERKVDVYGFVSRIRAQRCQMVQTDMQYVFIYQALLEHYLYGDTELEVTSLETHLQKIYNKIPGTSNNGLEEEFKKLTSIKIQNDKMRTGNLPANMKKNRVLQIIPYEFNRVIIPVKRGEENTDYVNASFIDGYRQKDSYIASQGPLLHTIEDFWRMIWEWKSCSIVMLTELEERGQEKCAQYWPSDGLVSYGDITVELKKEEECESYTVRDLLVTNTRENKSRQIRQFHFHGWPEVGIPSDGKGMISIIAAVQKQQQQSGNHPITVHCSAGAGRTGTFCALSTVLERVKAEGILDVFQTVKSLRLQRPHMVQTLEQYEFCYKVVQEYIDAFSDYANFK
UniProt Q06323: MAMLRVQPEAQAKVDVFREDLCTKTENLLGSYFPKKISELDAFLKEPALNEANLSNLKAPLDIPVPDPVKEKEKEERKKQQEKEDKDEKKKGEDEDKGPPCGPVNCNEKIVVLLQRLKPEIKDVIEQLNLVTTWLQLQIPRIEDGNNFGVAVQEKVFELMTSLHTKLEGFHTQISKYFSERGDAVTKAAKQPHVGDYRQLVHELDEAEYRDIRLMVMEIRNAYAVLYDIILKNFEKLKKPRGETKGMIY
UniProt P07602: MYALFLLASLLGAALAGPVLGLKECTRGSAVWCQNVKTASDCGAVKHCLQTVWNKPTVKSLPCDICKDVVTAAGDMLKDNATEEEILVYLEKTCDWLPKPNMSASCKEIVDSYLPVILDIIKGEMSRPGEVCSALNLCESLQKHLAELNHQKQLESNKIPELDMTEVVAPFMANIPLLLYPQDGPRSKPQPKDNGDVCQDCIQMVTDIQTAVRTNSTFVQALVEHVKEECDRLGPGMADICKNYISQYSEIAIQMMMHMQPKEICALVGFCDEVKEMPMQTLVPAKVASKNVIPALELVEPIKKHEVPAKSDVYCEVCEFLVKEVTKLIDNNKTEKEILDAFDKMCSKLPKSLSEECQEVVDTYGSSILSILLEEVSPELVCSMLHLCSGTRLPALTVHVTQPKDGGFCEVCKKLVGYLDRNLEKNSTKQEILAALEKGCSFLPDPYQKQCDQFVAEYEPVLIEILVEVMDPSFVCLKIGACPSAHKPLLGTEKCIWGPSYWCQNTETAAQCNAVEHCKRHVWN
UniProt P28066: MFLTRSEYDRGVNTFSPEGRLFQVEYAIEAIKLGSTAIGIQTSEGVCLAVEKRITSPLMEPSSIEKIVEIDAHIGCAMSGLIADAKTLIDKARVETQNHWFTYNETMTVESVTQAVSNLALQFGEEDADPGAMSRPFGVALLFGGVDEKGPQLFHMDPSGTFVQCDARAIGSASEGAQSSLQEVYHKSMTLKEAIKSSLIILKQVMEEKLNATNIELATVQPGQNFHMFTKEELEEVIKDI
UniProt P20962: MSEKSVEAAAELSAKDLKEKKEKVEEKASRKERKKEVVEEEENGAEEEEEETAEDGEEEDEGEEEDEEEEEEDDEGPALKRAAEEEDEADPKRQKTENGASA
UniProt Q9BVG9: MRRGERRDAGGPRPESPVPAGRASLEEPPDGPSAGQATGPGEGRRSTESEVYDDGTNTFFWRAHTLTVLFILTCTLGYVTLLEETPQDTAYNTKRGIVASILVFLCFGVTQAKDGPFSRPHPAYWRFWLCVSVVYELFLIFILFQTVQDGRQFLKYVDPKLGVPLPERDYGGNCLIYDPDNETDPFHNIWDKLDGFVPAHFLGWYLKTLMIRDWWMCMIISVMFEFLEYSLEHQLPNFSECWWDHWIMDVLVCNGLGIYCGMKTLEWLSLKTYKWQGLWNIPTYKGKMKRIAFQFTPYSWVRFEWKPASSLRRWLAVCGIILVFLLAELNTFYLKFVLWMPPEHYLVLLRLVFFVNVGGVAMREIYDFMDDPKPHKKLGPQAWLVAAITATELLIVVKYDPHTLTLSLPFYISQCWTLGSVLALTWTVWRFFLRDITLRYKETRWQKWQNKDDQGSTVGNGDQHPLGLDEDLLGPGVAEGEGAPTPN
UniProt O95758: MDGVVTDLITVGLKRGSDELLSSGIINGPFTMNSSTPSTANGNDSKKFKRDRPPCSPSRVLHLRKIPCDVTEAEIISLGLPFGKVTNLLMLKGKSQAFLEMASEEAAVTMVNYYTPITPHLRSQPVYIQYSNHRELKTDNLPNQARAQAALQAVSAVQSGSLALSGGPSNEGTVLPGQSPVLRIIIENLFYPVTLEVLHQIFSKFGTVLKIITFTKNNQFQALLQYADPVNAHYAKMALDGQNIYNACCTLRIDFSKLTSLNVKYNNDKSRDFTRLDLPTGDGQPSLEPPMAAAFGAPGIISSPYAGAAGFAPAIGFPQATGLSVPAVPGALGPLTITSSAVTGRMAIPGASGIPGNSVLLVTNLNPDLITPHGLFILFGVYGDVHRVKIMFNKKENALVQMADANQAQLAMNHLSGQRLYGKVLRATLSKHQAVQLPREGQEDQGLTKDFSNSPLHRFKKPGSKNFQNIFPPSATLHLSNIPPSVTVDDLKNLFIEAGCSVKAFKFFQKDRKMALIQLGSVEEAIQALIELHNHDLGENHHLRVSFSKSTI
UniProt Q6GMV3: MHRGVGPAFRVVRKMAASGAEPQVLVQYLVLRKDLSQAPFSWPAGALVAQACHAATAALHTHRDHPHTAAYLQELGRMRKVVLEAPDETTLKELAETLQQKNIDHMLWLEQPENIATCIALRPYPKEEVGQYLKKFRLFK
UniProt Q96QR8: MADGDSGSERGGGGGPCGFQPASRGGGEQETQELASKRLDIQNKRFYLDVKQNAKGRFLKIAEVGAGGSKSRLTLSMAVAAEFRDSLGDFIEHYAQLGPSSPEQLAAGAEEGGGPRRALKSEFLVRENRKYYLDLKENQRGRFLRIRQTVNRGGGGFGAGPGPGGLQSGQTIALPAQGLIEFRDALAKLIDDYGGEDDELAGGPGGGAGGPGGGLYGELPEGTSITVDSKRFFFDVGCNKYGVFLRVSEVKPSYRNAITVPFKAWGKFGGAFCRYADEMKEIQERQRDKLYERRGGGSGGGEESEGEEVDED

Key:
Test in all cases: log2 fold change, soluble protein after heating vs DMSO (PISA); higher = thermal stabilisation; K562 lysate, 10 uM; active = over 0.2 and 3.5 SD of the protein, either way, in both replicates (recomputed)
vemurafenib = compound: CCCS(=O)(=O)Nc1ccc(F)c(C(=O)c2c[nH]c3ncc(-c4ccc(Cl)cc4)cc23)c1F [vemurafenib]
Procedure, shortened: (§1)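 Log-two fold change in thermal stability relative to solvent controls is reported from duplicates. For each sample, crude K562 extract from dounce-homogenised pellets in PBS pH 7.4 with 1 mM MgCl2, at 1 mg/mL protein, was treated with 10 μM compound for 30 min. Aliquots heated for 3 min across 48°C-58°C were pooled, brought to 0.5% NP-40 at 4°C and cleared at 21,000xg for 90 min. The supernatant was quantified by TMTpro 16plex LC-MS/MS with channel sums equalised.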

[1] = compound: CCCS(=O)(=O)Nc1ccc(F)c(C(=O)c2c[nH]c3ncc(Cl)cc23)c1F
Procedure, shortened: as §1

barasertib = compound: CCN(CCCOc1ccc2c(Nc3cc(CC(=O)Nc4cccc(F)c4)[nH]n3)ncnc2c1)CCOP(=O)(O)O [barasertib]
Procedure, shortened: as §1

[2] = compound: CC[C@@H]1C(=O)N(C)c2cnc(Nc3ccc(C(=O)NC4CCN(C)CC4)cc3OC)nc2N1C1CCCC1
Procedure, shortened: as §1

volasertib = compound: CC[C@@H]1C(=O)N(C)c2cnc(Nc3ccc(C(=O)N[C@H]4CC[C@H](N5CCN(CC6CC6)CC5)CC4)cc3OC)nc2N1C(C)C [volasertib]
Procedure, shortened: as §1

[3] = compound: CCn1c(C(=O)N(C2CC2)C2CC2)cc2c3c(ncn3C)c(Nc3cc(C)n(C)n3)nc21
Procedure, shortened: as §1

[4] = compound: CCn1cc(-c2ccnc3[nH]c(-c4cccc(CN(C)C)c4)cc23)c(-c2ccc(NC(=O)N(C)C)cc2)n1
Procedure, shortened: as §1

[5] = compound: CN1CCC(CNc2ccc3ncc(-c4cccc(OC(F)(F)F)c4)n3n2)CC1
Procedure, shortened: as §1

saracatinib = compound: CN1CCN(CCOc2cc(OC3CCOCC3)c3c(Nc4c(Cl)ccc5c4OCO5)ncnc3c2)CC1 [saracatinib]
Procedure, shortened: as §1

sotrastaurin = compound: CN1CCN(c2nc(C3=C(c4c[nH]c5ccccc45)C(=O)NC3=O)c3ccccc3n2)CC1 [sotrastaurin]
Procedure, shortened: as §1

alvocidib = compound: CN1CC[C@H](c2c(O)cc(O)c3c(=O)cc(-c4ccccc4Cl)oc23)[C@H](O)C1 [alvocidib]
Procedure, shortened: as §1

Tubastatin A = compound: CN1CCc2c(c3ccccc3n2Cc2ccc(C(=O)NO)cc2)C1 [Tubastatin A]
Procedure, shortened: as §1

[6] = compound: CNC(=O)C1=CC=CC=C1NC2=NC(=NC=C2Cl)NC3=C(C=C(C=C3)N4CCOCC4)OC
Procedure, shortened: as §1

defactinib = compound: CNC(=O)c1ccc(Nc2ncc(C(F)(F)F)c(NCc3nccnc3N(C)S(C)(=O)=O)n2)cc1 [defactinib]
Procedure, shortened: as §1

[7] = compound: CNc1nc(-c2ccc3c(N)n[nH]c3c2)cc(N2C[C@@H](C(=O)NC3CCCCC3)CC[C@H]2C)n1
Procedure, shortened: as §1

encorafenib = compound: COC(=O)N[C@@H](C)CNc1nccc(-c2cn(C(C)C)nc2-c2cc(Cl)cc(NS(C)(=O)=O)c2F)n1 [encorafenib]
Procedure, shortened: as §1

[8] = compound: COC(=O)[C@H](CCSC)NC(=O)C1=C(C=C(C=C1)NC[C@H](CS)N)C2=CC=CC=C2
Procedure, shortened: as §1

alisertib = compound: COc1cc(Nc2ncc3c(n2)-c2ccc(Cl)cc2C(c2c(F)cccc2OC)=NC3)ccc1C(=O)O [alisertib]
Procedure, shortened: as §1

[9] = compound: COc1cc2nc(-c3cc(F)ccc3O)nc(N[C@@H]3CNC[C@H]3C(C)(C)O)c2cc1OC
Procedure, shortened: as §1

gefitinib = compound: COc1cc2ncnc(Nc3ccc(F)c(Cl)c3)c2cc1OCCCN1CCOCC1 [gefitinib]
Procedure, shortened: as §1

Measured: log2 fold change

PWP2 (UniProt Q15269)
inactive: vemurafenib 0.033 | [1] 0.045 | barasertib 0.044 | [2] 0.006 | volasertib -0.013 | [3] 0.018 | [4] 0.015 | [5] -0.038 | saracatinib 0.015 | sotrastaurin 0.052 | alvocidib -0.014 | Tubastatin A -0.073 | [6] 0.027 | defactinib 0.042 | [7] 0.061 | encorafenib 0.035 | [8] -0.033 | alisertib 0.004 | [9] -0.007 | gefitinib -0.057

PRXL2B isoform 3 (UniProt Q8TBF2)
inactive: vemurafenib 0.011 | [1] 0.041 | barasertib -0.097 | [2] -0.006 | volasertib -0.021 | [3] 0.036 | [4] -0.131 | [5] 0.109 | saracatinib -0.008 | sotrastaurin -0.015 | alvocidib 0.049 | Tubastatin A 0.041 | [6] 0.037 | defactinib -0.025 | [7] 0.118 | encorafenib -0.015 | [8] 0.129 | alisertib 0.028 | [9] -0.007 | gefitinib 0.002

PRPH isoform 2 (UniProt P41219)
inactive: vemurafenib 0.03 | [1] -0.05 | barasertib -0.13 | [2] -0.102 | volasertib -0.028 | [3] 0.098 | [4] 0.132 | [5] -0.1 | saracatinib 0.071 | sotrastaurin 0.036 | alvocidib 0.062 | Tubastatin A 0.021 | [6] -0.049 | defactinib -0.081 | [7] -0.133 | encorafenib -0.023 | [8] -0.178 | alisertib -0.012 | [9] -0.028 | gefitinib 0.014

PSIP1 (UniProt O75475)
inactive: vemurafenib 0.037 | [1] 0.001 | barasertib -0.027 | [2] 0.046 | volasertib 0 | [3] 0.012 | [4] 0.008 | [5] -0.004 | saracatinib -0.012 | sotrastaurin 0.023 | alvocidib 0.022 | Tubastatin A 0.017 | [6] -0.009 | defactinib -0.018 | [7] 0.049 | encorafenib -0.003 | [8] -0.01 | alisertib -0.054 | [9] 0.006 | gefitinib -0.064

PRTFDC1 (UniProt Q9NRG1)
inactive: vemurafenib -0.022 | [1] -0.039 | barasertib -0.013 | [2] -0.003 | volasertib 0.03 | [3] -0.004 | [4] -0.042 | [5] 0.014 | saracatinib -0.024 | sotrastaurin 0.019 | alvocidib 0.078 | Tubastatin A 0.017 | [6] -0.021 | defactinib -0.05 | [7] 0.034 | encorafenib -0.037 | [8] -0.047 | alisertib 0.024 | [9] -0.013 | gefitinib -0.015

PTPRA (UniProt P18433)
inactive: vemurafenib 0.013 | [1] 0.029 | barasertib 0.057 | [2] 0.028 | volasertib -0.043 | [3] -0.019 | [4] 0.052 | [5] 0.013 | saracatinib 0.014 | sotrastaurin 0.015 | alvocidib 0.071 | Tubastatin A 0.029 | [6] -0.013 | defactinib 0.034 | [7] 0.003 | encorafenib 0.025 | [8] -0.023 | alisertib 0.05 | [9] 0.019 | gefitinib 0.029

PSME1 (UniProt Q06323)
inactive: vemurafenib -0.013 | [1] -0.011 | barasertib -0.037 | [2] 0.017 | volasertib 0.027 | [3] 0.039 | [4] 0.081 | [5] -0.007 | saracatinib -0.01 | sotrastaurin 0.018 | alvocidib 0.03 | Tubastatin A -0.009 | [6] 0.025 | defactinib 0.027 | [7] -0.033 | encorafenib -0.011 | [8] -0.005 | alisertib -0.007 | [9] 0.013 | gefitinib -0.005

PSAP isoform 3 (UniProt P07602)
inactive: vemurafenib 0.008 | [1] -0.063 | barasertib 0.03 | [2] 0.017 | volasertib 0.067 | [3] 0.019 | [4] -0.042 | [5] 0.024 | saracatinib 0.146 | sotrastaurin 0.04 | alvocidib 0.032 | Tubastatin A 0.028 | [6] 0.003 | defactinib 0.008 | [7] -0.034 | encorafenib -0.012 | [8] -0.069 | alisertib 0.027 | [9] 0.002 | gefitinib 0.027

PSMA5 (UniProt P28066)
inactive: vemurafenib 0.016 | [1] -0.007 | barasertib 0.04 | [2] 0.033 | volasertib 0.032 | [3] -0.025 | [4] -0.017 | [5] 0.039 | saracatinib 0.006 | sotrastaurin 0.009 | alvocidib -0.037 | Tubastatin A 0.029 | [6] -0.007 | defactinib -0.006 | [7] 0.01 | encorafenib -0.027 | [8] -0.011 | alisertib -0.019 | [9] 0.004 | gefitinib 0

PTCD3 (UniProt Q96EY7)
inactive: vemurafenib 0.03 | [1] 0.012 | barasertib 0.019 | [2] -0.006 | volasertib -0.04 | [3] 0.04 | [4] 0.042 | [5] 0.021 | saracatinib -0.037 | sotrastaurin -0.027 | alvocidib 0.018 | Tubastatin A -0.01 | [6] 0.026 | defactinib 0.071 | [7] 0.005 | encorafenib 0.046 | [8] -0.033 | alisertib 0.027 | [9] -0.029 | gefitinib -0.045

Reprinted from the entries so far (3 entries):
PTPRA (UniProt P18433)
inactive: vemurafenib 0.013 | [1] 0.029 | barasertib 0.057 | [2] 0.028 | volasertib -0.043 | [3] -0.019 | [4] 0.052 | [5] 0.013 | saracatinib 0.014 | sotrastaurin 0.015 | alvocidib 0.071 | Tubastatin A 0.029 | [6] -0.013 | defactinib 0.034 | [7] 0.003 | encorafenib 0.025 | [8] -0.023 | alisertib 0.05 | [9] 0.019 | gefitinib 0.029

PSME1 (UniProt Q06323)
inactive: vemurafenib -0.013 | [1] -0.011 | barasertib -0.037 | [2] 0.017 | volasertib 0.027 | [3] 0.039 | [4] 0.081 | [5] -0.007 | saracatinib -0.01 | sotrastaurin 0.018 | alvocidib 0.03 | Tubastatin A -0.009 | [6] 0.025 | defactinib 0.027 | [7] -0.033 | encorafenib -0.011 | [8] -0.005 | alisertib -0.007 | [9] 0.013 | gefitinib -0.005

PSAP isoform 3 (UniProt P07602)
inactive: vemurafenib 0.008 | [1] -0.063 | barasertib 0.03 | [2] 0.017 | volasertib 0.067 | [3] 0.019 | [4] -0.042 | [5] 0.024 | saracatinib 0.146 | sotrastaurin 0.04 | alvocidib 0.032 | Tubastatin A 0.028 | [6] 0.003 | defactinib 0.008 | [7] -0.034 | encorafenib -0.012 | [8] -0.069 | alisertib 0.027 | [9] 0.002 | gefitinib 0.027

Further records:

PTMS (UniProt P20962)
inactive: vemurafenib 0.029 | [1] -0.025 | barasertib -0.003 | [2] -0.003 | volasertib 0.067 | [3] -0.021 | [4] 0.006 | [5] 0.011 | saracatinib -0.016 | sotrastaurin 0.069 | alvocidib -0.003 | Tubastatin A 0.045 | [6] -0.003 | defactinib -0.011 | [7] 0.012 | encorafenib -0.037 | [8] -0.043 | alisertib -0.012 | [9] 0.021 | gefitinib 0.024

PTDSS2 (UniProt Q9BVG9)
inactive: vemurafenib -0.056 | [1] 0.013 | barasertib 0.032 | [2] -0.074 | volasertib -0.027 | [3] -0.034 | [4] -0.228 | [5] 0.084 | saracatinib 0.063 | sotrastaurin 0.039 | alvocidib -0.184 | Tubastatin A 0.003 | [6] 0.013 | defactinib 0.032 | [7] -0.044 | encorafenib 0.152 | [8] 0.067 | alisertib 0.021 | [9] -0.027 | gefitinib 0.019

PTBP3 isoform 4 (UniProt O95758)
inactive: vemurafenib 0.01 | [1] 0.016 | barasertib 0.016 | [2] -0.003 | volasertib 0.002 | [3] 0.037 | [4] -0.107 | [5] -0.002 | saracatinib 0.007 | sotrastaurin -0.043 | alvocidib 0.027 | Tubastatin A -0.058 | [6] -0.01 | defactinib 0.004 | [7] 0.048 | encorafenib -0.001 | [8] 0.047 | alisertib 0 | [9] -0.016 | gefitinib 0.015

PTRHD1 (UniProt Q6GMV3)
inactive: vemurafenib -0.012 | [1] 0 | barasertib 0.137 | [2] 0.007 | volasertib 0.038 | [3] 0.098 | [4] 0.07 | [5] -0.088 | saracatinib 0.02 | sotrastaurin -0.039 | alvocidib 0.152 | Tubastatin A 0.14 | [6] 0.04 | defactinib 0.074 | [7] 0.051 | encorafenib 0.001 | [8] 0.016 | alisertib 0.036 | [9] -0.069 | gefitinib -0.242

PURB (UniProt Q96QR8)
inactive: vemurafenib -0.002 | [1] -0.025 | barasertib -0.006 | [2] -0.178 | volasertib 0.009 | [3] 0.037 | [4] 0.007 | [5] 0.01 | saracatinib 0.007 | sotrastaurin -0.02 | alvocidib -0.004 | Tubastatin A -0.04 | [6] 0.009 | defactinib -0.009 | [7] -0.067 | encorafenib 0.07 | [8] 0.017 | alisertib -0.011 | [9] -0.005 | gefitinib 0.025
